In PubChem BioAssay AID504834 (National Center for Advancing Translational Sciences (NCATS), 2011):
About 22,000 (6.9%) of roughly 320,000 compounds were called active. Inconclusive means that the source gave no clear call. Such entries were picked first, then a sample of the others. Calls follow the shape of the dose curve; as a rule, active = well fitted inhibition curve with a large enough effect; inconclusive = small, poorly fitted or top-dose-only effect, or another doubt; inactive = no such curve, though single readings can be large or run the other way. Potencies beside an inconclusive call are fits to weak or partial responses and may not hold up.

test: Primary qHTS for delayed death inhibitors of the malarial parasite plastid, 96 hour incubation; settings: P. falciparum luciferase reporter growth; series mostly up to 28.7 µM
Outline: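 Plates of compound plus infected erythrocytes (2% hematocrit, 0.05% parasitemia final) incubate 96 hours, 37 C, 5% CO2. Detection reagent added; reduced luminescence from the parasites' luciferase reporter flags inhibition.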
Potency is read from the fitted curve at half-maximal effect.

Row | SMILES | Potency
1 | Cn1nc(C(F)(F)F)c(/C=N/OC(=O)c2ccccc2)c1SCc1ccc(Cl)cc1 | inconclusive: 0.117 µM [inhibitor, partial curve, poor fit]
2 | N#Cc1cc(Br)ccc1N=C1CCCN1c1ccccc1 | inactive
3 | CCCCn1c(N)c(C(=O)OCCOC)c2nc3ccccc3nc21 | inconclusive: 11.7 µM [inhibitor, single point]
4 | COc1ccc(S(=O)(=O)N2CCCCC2)cc1NC(=O)Cc1sc(C)nc1-c1ccc(F)cc1 | inconclusive: 7.38 µM [inhibitor, partial curve]
5 | Cc1cccc(NC(=O)c2ccc(NCCO)c([N+](=O)[O-])c2)n1 | inactive
6 | CCn1c(C(=O)Nc2ccsc2C(=O)OC)cc2sc(Cl)cc21 | inconclusive: 18.5 µM [inhibitor, single point]
7 | CC(C)NC(=O)c1cccc(Cn2cc(Cl)cn2)c1 | inconclusive: 7.38 µM [inhibitor, partial curve, poor fit]
8 | C[N+](C)(CCCCCC[N+](C)(C)CCCN1C(=O)c2cccc3cccc(c23)C1=O)CCCN1C(=O)c2cccc3cccc(c23)C1=O | active: 0.233 µM
9 | Cc1cccc(C)c1NC(=O)CSc1nc(-c2ccco2)cc(C(F)(F)F)n1 | inactive
10 | CC(=O)c1ccc(S(=O)(=O)NCC(=O)Nc2nc3ccccc3[nH]2)cc1 | inconclusive: 5.86 µM [inhibitor, partial curve, poor fit]
11 | O=C(NCCc1ccccc1)C(=O)NCC1OCCCN1S(=O)(=O)c1ccc(F)cc1 (centres undefined) | inconclusive: 4.15 µM [inhibitor, single point]
12 | Nc1cc(C(=O)OCC(=O)NCc2ccco2)ccc1Cl | inactive
13 | O=C(Nc1cccc(S(=O)(=O)N2CCCCC2)c1)c1cccs1 | inactive
14 | Cc1cccc(NS(=O)(=O)c2ccc(-c3cnc(C4CC4)o3)cc2)c1C | active: 6.57 µM
15 | Cc1ccc(-c2nc(CS(=O)CC(=O)NCCN3CCCCCC3)c(C)o2)cc1 (centres undefined) | inconclusive: 18.5 µM [inhibitor, single point]
16 | Cc1ccc(-c2cc(C(=O)NCc3ccccn3)no2)cc1 | inactive
17 | CN(C(=O)C1CCN(S(=O)(=O)c2cccc3nonc23)CC1)C1CCCCC1 | inconclusive: 3.29 µM [inhibitor, partial curve]
18 | CC(=O)Nc1ccc(OCC(O)Cn2nc(C)c(Br)c2C)cc1 (centres undefined) | inconclusive: 10.4 µM [inhibitor, single point]
19 | COC(=O)c1cc(NC(=O)c2c(F)c(F)c(F)c(F)c2F)cc(C(=O)OC)c1 | inconclusive: 0.928 µM [inhibitor, partial curve, poor fit]
20 | COc1cccc(NC(=O)C2COc3ccccc3O2)c1 (centres undefined) | inconclusive: 10.4 µM [inhibitor, single point]
21 | CC(C)(C)C(=O)[C@@H]1[C@@H]2C(=O)N(c3ccc4c(c3)OCCO4)C(=O)[C@@H]2C2c3ccccc3C=CN21 (some centres undefined) | inactive
22 | O=C(NC1CCCC1)c1ccc(CSCc2ccccc2F)o1 | inconclusive: 18.5 µM [inhibitor, single point]

Row | SMILES | Potency
23 | Cc1c(C(=O)OCC(=O)N(C)c2ccccc2)oc2ccccc12 | inactive
24 | Nc1c(N(CCC2=CCCCC2)C(=O)c2ccc([N+](=O)[O-])o2)c(=O)[nH]c(=O)n1Cc1ccccc1 | inconclusive: 18.5 µM [inhibitor, single point]
25 | Cc1nn(-c2ccccc2)c2sc(C(=O)NNC(=O)COc3cccc4ccccc34)cc12 | inconclusive: 0.233 µM [inhibitor, full curve, poor fit]
26 | Cc1ccc(-c2nsc(SCC(=O)NCC3CCCO3)n2)cc1 (centres undefined) | inactive
27 | CCOc1ccccc1NC(=O)c1nc(S(=O)(=O)Cc2cccc(C)c2)ncc1Cl | inactive
28 | CCN1CCN(c2ccc(S(=O)(=O)N3CCCCC3)cc2NC(=O)COc2ccc(Cl)cc2)CC1 | inconclusive: 2.08 µM [inhibitor, partial curve, poor fit]
29 | CC(=O)N1CCN(c2ccc(NC(=O)c3ccc4c(c3)OCCO4)cc2Cl)CC1 | inactive
30 | CCCCCCN1C=CC=C/C1=C/C=C(C#N)C#N | inconclusive: 9.28 µM [inhibitor, single point]
31 | Cn1c(SCc2nc3ccccc3n2CCO)nc2ccccc21 | inconclusive: 13.1 µM [inhibitor, partial curve, poor fit]
32 | Cc1cccc(N2CC(C(=O)Nc3nnc(SCCC4OCCO4)s3)CC2=O)c1 (centres undefined) | inconclusive: 4.15 µM [inhibitor, partial curve, poor fit]
33 | CCc1ccc(-c2cc(C)no2)cc1S(=O)(=O)N1CCC(C)CC1 | inconclusive: 9.28 µM [inhibitor, partial curve]
34 | Cc1ccc([N+](=O)[O-])c(OCC(O)CNC(C)(C)C)c1 (centres undefined) | inconclusive: 16.5 µM [inhibitor, single point]
35 | CC1CCC(N2CCNCC2)CC1 (centres undefined) | active: 14.7 µM
36 | CCOc1ccc(CC(=O)Nc2c(C(N)=O)oc3ccc(Br)cc23)cc1OCC | active: 11.7 µM
37 | NC(=O)n1c(O)c(C(=O)c2cccs2)c2cc(Cl)ccc21 | inactive
38 | CCc1ccc(/C=C2\Oc3c(ccc(O)c3CN3CCN(C)CC3)C2=O)cc1 | inconclusive: 1.47 µM [inhibitor, full curve, poor fit]
39 | CCOC(=O)c1[nH]cnc1C(=O)Nc1ccc(Cl)cc1 | inconclusive: 10.4 µM [inhibitor, single point]
40 | COc1ccc(CC(=O)NCC2CCCN(Cc3cccc(SC)c3)C2)cc1 (centres undefined) | inconclusive: 18.5 µM [inhibitor, single point]
41 | Cc1ccc(S(=O)(=O)N2CCN(C(=O)CCc3c[nH]c4ccccc34)CC2)cc1 | inconclusive: 9.28 µM [inhibitor, partial curve, poor fit]
42 | Cn1c(SCC(=O)N2CCCCC2)nc2cccnc21 | active: 13.1 µM
43 | CCOC(=O)C1(Cc2ccccc2Cl)CCN(Cc2csc(C(C)=O)c2)CC1 | inconclusive: 18.5 µM [inhibitor, single point]
44 | Nc1ccccc1-c1ccccc1N | inactive

Copied from the list.
In Potency, Cc1c(C(=O)OCC(=O)N(C)c2ccccc2)oc2ccccc12 reads inactive
In Potency, NC(=O)n1c(O)c(C(=O)c2cccs2)c2cc(Cl)ccc21 reads inactive
